Measured values: article PMC11191273
No constants are given. Whether binding was seen depends on the method and setting. Binding seen in cells or lysates may run through a third protein. Some results given as binding are weak or reduced against the parent protein; the word gives no strength.

Amino acid sequences for entries named in this document (tags omitted).
UniProt P18085: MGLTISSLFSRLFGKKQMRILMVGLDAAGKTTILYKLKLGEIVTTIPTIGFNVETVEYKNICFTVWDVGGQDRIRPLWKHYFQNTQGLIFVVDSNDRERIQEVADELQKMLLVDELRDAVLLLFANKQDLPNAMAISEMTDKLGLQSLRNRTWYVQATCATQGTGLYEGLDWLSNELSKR
UniProt Q9UMX0: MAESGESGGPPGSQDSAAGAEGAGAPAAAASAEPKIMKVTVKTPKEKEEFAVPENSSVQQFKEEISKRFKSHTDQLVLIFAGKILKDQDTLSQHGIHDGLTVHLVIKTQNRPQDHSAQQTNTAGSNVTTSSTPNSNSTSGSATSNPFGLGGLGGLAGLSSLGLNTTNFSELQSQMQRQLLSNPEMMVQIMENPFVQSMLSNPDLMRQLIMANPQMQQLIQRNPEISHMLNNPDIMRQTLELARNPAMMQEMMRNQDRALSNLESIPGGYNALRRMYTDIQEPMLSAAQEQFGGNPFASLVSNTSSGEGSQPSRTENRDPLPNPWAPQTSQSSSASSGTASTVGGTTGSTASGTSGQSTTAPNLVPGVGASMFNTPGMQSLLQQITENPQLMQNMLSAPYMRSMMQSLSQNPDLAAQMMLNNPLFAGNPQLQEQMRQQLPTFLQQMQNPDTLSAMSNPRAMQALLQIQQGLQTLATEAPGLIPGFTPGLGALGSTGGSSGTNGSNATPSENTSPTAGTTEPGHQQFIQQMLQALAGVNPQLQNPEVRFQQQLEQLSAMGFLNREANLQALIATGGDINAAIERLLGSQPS

Columns and labels:
3Flag-ARF4 = 3Flag-ARF4 (UniProt P18085); assay: co-IP; 3Flag-ARF4 hESC cell line used to pull down the protein (Flag antibody); UBQLN1 detected in the precipitate
[1] = molecular target: 3Flag-UBQLN1 (Ubiquilin1, Flag-tagged) (human) (UniProt Q9UMX0); assay: co-IP; anti-Flag immunoprecipitation from lysate (NETN buffer) of hESCs stably expressing 3Flag-UBQLN1, Protein G beads, 4 °C; blot for mitochondria components; IgG as control

binding (3Flag-ARF4) | binding [1] | Molecule
binds |  | UBQLN1 (in the 3Flag-ARF4 cell line) (from UniProt Q9UMX0 1-589)
 | no binding | SDHB (protein, UniProt P21912 29-280) AQTAAATAPRIKKFAIYRWDPDKAGDKPHMQTYEVDLNKCGPMVLDALIKIKNEVDSTLTFRRSCREGICGSCAMNINGGNTLACTRRIDTNLNKVSKIYPLPHMYVIKDLVPDLSNFYAQYKSIEPYLKKKDESQEGKQQYLQSIEEREKLDGLYECILCACCSTSCPSYWWNGDKYLGPAVLMQAYRWMIDSRDDFTEERLAKLQDPFSLYRCHTIMNCTRTCPKGLNPGKAIAEIKKMMATYKEKKASV
